From publication PMC6588571
These are yes or no findings as the source states them, for the method shown. For part of these data: In cells and extracts the contact can be indirect. Some entries that bind do so weakly or less than the wild type. Tags and fused reporters may be left off the sequences shown.

How the values were obtained:
[1] = molecular target: T1, Hrr25(1–394).K38R fused to the Gal4 DNA-binding domain (S. cerevisiae) (UniProt P29295); assay: two-hybrid; Y2H strains with Hrr25(1–394).K38R-BD and Ltv1 constructs-AD, transformed with empty plasmid or a URA3 plasmid for ENP1 overexpression under the ADH1 promoter; spotted on SDC-Leu-Trp-Ura, SDC-His-Leu-Trp-Ura and SDC-Ade-Leu-Trp-Ura
T1 sequence: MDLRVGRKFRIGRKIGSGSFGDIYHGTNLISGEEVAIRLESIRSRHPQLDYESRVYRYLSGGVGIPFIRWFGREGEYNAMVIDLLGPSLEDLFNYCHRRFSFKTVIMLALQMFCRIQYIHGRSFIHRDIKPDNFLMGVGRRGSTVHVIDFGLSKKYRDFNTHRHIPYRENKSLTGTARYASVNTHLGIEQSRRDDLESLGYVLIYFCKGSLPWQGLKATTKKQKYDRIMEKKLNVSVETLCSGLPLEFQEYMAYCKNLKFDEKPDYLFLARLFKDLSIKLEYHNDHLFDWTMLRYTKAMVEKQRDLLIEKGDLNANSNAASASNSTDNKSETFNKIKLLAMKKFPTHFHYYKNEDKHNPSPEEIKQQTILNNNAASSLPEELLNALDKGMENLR

[2] = molecular target: T2, Enp1 bystin domain (aa 155–470) (S. cerevisiae) (UniProt P38333); assay: two-hybrid; baits fused to the GAL4 DNA-binding domain, preys fused to the GAL4 activation domain, co-transformed into reporter strain PJ69-4A; ten-fold serial dilutions spotted on SDC-Trp-Leu, SDC-Trp-Leu-His (growth: weak interaction) and SDC-Trp-Leu-Ade (growth: strong interaction)
T2 sequence: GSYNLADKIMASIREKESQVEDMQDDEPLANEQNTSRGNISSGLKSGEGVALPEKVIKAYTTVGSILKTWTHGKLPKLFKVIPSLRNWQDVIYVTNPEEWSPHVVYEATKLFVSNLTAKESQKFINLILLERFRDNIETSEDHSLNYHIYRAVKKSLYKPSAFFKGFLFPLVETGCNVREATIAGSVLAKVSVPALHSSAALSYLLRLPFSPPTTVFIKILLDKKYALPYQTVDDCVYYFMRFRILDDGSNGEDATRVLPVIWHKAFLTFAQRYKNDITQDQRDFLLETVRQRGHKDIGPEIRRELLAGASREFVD

[3] = molecular target: T3, Hrr25(1–394) fused to the Gal4 DNA-binding domain (S. cerevisiae) (UniProt P29295); assay: as above
T3 sequence: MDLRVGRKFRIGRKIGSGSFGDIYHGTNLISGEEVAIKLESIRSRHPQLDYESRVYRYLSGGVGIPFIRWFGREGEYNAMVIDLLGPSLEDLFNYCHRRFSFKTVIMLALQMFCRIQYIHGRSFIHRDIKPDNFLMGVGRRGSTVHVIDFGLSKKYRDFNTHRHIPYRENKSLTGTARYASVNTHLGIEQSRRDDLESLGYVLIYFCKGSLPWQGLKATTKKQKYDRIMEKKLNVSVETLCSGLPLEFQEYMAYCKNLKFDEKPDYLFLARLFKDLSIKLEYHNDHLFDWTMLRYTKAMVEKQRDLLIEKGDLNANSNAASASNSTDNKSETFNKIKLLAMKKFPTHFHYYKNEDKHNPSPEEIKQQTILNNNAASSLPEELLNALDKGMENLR

[4] = molecular target: T1, Hrr25(1–394).K38R fused to the Gal4 DNA-binding domain (S. cerevisiae); assay: as above
[5] = molecular target: T4, full-length Hrr25 (494 aa) fused to the Gal4 DNA-binding domain (S. cerevisiae) (UniProt P29295); assay: as above
T4 sequence: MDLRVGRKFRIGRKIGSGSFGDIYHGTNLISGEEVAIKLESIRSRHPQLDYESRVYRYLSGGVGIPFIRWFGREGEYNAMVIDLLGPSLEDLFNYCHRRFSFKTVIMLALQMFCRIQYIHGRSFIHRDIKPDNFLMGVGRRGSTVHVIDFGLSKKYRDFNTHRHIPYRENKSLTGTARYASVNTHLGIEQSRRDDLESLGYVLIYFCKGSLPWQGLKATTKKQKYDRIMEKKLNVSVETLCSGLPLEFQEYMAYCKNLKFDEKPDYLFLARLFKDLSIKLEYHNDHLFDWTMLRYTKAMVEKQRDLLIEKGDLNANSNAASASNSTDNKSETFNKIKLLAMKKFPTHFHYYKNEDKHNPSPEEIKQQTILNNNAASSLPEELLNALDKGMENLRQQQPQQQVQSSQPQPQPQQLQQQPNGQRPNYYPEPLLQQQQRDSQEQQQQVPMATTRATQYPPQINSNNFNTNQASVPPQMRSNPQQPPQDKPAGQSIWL

[6] = molecular target: T5, C-terminally TAP-tagged Tsr1 (S. cerevisiae), Q07381; assay: co-IP; Tsr1-TAP pre-40S particles from yeast lysate bound to IgG beads, eluted with TEV protease, western blotting; wild-type, rps20Δloop, rio2.D253A and ltv1 phosphomutant strains; in the ATP assays the bound particles were incubated with or without 1 mM ATP for 30 min at 4 °C (50 mM TRIS pH 7.5, 100 mM NaCl, 5 mM MgCl2, 0.075% NP-40, 1 mM DTT) and washed before elution; conditions: remark: other sources report otherwise
T5 chain: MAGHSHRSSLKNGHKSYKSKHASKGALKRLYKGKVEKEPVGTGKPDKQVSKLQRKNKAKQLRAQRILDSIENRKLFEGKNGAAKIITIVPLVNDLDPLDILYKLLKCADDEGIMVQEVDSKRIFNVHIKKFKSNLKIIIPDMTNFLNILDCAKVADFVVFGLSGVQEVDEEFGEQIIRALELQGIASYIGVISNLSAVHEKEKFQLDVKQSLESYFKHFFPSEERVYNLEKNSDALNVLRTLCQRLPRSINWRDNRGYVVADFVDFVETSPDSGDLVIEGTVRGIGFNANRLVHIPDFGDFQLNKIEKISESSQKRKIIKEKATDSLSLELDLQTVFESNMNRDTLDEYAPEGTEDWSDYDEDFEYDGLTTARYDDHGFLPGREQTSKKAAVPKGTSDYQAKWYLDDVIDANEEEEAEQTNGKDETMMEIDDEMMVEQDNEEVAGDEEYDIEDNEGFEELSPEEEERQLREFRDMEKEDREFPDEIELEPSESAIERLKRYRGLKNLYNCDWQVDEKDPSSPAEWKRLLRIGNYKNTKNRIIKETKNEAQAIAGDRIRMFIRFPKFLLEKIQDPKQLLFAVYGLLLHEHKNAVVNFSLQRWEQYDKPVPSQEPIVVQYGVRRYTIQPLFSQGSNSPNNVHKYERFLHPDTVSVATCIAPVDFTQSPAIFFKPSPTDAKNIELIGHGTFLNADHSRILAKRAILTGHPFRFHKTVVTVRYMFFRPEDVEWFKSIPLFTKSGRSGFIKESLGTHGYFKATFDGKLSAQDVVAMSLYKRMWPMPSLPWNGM

Measured: binding

B1: Ltv1 fused to the Gal4 activation domain (protein, UniProt P34078 1-463)
chain: MSKKFSSKNSQRYVVVHRPHDDPSFYDTDASAHVLVPVSNPNKTSPEADLRKKDVSSTKPKGRRAHVGEAALYGINFDDSEYDYTQHLKPIGLDPENSIFIASKGNEQKVEKKNIEDLFIEPKYRRDEIEKDDALPVFQRGMAKPEYLLHQQDTTDEIRGFKPDMNPALREVLEALEDEAYVVNDDVVVEDISKKTQLQGDNYGEEEKEDDIFAQLLGSGEAKDEDEFEDEFDEWDIDNVENFEDENYVKEMAQFDNIENLEDLENIDYQADVRRFQKDNSILEKHNSDDEFSNAGLDSVNPSEEEDVLGELPSIQDKSKTGKKKRKSRQKKGAMSDVSGFSMSSSAIARTETMTVLDDQYDQIINGYENYEEELEEDEEQNYQPFDMSAERSDFESMLDDFLDNYELESGGRKLAKKDKEIERLKEAADEVSKGKLSQRRNRERQEKKKLEKVTNTLSSLKF
binds: [1] | [2] | [3] | [4] | [5]

B2: Nob1 (endogenous), Q08444 1-459 (enzyme)
chain: MTENQTAHVRALILDATPLITQSYTHYQNYAQSFYTTPTVFQEIKDAQARKNLEIWQSLGTLKLVHPSENSIAKVSTFAKLTGDYSVLSANDLHILALTYELEIKLNNGDWRLRKKPGDALDASKADVGTDGKQKLTEDNKKEEDSESVPKKKNKRRGGKKQKAKREAREAREAENANLELESKAEEHVEEAGSKEQICNDENIKESSDLNEVFEDADDDGDWITPENLTEAIIKDSGEDTTGSLGVEASEEDRHVALNRPENQVALATGDFAVQNVALQMNLNLMNFMSGLKIKRIRNYMLRCHACFKIFPLPKDGKPKHFCASCGGQGTLLRCAVSVDSRTGNVTPHLKSNFQWNNRGNRYSVASPLSKNSQKRYGKKGHVHSKPQENVILREDQKEYEKVIKQEEWTRRHNEKILNNWIGGGSADNYISPFAITGLKQHNVRIGKGRYVNSSKRRS
binds: [6]
